Assay results: PMC5746398
Results are given in words; binding and its absence hold for the method and conditions named. In cells and extracts the contact can be indirect. A yes stands for co-enrichment or nearness to the bait. Other partners may have been found. Blank lines part the entries; values can stand above or below the molecule they belong to.

Sequences of proteins named here, by UniProt entry; tags and fusion partners are left off.
UniProt P15104: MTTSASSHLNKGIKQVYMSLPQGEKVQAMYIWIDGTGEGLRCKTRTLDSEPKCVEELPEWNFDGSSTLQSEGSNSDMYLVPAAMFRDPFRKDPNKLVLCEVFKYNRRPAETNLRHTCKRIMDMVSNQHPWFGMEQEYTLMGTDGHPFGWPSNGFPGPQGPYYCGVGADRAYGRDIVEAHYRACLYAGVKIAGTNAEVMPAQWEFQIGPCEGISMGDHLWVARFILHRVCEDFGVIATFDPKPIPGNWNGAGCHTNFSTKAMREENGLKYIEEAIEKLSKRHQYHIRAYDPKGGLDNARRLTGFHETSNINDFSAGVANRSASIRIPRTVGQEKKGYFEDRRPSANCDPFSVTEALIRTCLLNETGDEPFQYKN
UniProt Q9H4L5: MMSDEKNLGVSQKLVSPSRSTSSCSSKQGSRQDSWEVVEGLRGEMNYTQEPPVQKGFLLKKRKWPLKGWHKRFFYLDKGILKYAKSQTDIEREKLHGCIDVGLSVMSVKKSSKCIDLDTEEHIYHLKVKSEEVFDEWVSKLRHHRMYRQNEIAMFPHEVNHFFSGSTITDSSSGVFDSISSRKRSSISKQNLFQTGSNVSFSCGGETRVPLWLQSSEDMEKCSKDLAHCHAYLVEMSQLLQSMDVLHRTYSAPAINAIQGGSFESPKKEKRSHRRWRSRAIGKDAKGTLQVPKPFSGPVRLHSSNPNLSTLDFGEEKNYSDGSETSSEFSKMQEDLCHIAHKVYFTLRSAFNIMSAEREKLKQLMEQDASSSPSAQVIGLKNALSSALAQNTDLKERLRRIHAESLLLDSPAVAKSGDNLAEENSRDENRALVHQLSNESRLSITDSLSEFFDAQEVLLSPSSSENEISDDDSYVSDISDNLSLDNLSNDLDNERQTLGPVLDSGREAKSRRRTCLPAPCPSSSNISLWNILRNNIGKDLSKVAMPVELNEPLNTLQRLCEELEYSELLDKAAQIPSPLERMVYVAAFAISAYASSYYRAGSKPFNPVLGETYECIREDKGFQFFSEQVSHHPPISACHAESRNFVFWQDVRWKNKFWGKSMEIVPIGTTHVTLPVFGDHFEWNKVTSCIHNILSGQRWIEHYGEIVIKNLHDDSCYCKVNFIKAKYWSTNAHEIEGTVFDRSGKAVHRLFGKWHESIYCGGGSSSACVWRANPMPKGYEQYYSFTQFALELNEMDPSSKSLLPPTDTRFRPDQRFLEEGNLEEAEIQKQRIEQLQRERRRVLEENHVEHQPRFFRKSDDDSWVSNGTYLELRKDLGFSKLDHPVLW
UniProt O00429: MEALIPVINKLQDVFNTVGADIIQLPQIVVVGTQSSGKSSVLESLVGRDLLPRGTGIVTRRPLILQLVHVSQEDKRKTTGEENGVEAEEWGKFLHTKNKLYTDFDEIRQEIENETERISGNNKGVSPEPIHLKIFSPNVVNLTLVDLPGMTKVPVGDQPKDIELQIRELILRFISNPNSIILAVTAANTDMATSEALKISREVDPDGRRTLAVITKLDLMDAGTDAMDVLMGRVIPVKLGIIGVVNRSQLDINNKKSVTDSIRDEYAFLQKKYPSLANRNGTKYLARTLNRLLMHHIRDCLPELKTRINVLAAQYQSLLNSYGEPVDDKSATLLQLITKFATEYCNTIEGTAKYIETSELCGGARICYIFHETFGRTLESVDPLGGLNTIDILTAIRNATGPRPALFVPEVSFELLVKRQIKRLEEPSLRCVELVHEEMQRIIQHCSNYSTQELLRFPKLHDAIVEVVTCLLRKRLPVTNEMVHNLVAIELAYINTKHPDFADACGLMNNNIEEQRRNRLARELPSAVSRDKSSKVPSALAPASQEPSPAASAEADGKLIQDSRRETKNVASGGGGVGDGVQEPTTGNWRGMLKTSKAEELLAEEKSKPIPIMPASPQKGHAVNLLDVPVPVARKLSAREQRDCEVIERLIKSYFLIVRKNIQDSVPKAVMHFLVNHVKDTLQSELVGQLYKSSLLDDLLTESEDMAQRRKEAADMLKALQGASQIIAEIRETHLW
UniProt P51784: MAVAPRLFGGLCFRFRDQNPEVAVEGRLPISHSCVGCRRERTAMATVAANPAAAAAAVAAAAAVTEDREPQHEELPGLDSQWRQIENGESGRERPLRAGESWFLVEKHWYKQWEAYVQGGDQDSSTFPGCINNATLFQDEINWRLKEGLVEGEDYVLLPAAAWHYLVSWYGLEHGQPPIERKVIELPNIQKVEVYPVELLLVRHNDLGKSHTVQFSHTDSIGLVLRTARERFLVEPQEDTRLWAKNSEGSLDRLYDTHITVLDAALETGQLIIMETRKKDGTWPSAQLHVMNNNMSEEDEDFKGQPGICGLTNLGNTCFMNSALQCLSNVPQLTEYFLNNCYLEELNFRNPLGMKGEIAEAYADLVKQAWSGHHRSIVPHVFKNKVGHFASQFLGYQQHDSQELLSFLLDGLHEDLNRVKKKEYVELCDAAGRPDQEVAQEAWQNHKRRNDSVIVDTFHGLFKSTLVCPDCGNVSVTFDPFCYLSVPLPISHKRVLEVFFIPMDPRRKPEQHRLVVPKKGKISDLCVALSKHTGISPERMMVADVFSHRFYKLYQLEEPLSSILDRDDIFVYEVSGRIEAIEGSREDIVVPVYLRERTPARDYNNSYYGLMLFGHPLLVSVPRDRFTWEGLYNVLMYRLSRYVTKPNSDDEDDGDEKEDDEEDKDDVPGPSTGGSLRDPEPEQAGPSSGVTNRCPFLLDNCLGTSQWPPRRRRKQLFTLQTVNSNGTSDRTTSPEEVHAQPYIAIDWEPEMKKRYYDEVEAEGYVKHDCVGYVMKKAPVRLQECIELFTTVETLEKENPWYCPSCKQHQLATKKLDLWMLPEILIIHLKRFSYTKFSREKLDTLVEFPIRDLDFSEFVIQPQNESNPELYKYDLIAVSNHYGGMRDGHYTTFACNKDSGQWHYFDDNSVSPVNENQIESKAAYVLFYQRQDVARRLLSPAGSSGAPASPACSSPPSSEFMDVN
UniProt Q9ULT8: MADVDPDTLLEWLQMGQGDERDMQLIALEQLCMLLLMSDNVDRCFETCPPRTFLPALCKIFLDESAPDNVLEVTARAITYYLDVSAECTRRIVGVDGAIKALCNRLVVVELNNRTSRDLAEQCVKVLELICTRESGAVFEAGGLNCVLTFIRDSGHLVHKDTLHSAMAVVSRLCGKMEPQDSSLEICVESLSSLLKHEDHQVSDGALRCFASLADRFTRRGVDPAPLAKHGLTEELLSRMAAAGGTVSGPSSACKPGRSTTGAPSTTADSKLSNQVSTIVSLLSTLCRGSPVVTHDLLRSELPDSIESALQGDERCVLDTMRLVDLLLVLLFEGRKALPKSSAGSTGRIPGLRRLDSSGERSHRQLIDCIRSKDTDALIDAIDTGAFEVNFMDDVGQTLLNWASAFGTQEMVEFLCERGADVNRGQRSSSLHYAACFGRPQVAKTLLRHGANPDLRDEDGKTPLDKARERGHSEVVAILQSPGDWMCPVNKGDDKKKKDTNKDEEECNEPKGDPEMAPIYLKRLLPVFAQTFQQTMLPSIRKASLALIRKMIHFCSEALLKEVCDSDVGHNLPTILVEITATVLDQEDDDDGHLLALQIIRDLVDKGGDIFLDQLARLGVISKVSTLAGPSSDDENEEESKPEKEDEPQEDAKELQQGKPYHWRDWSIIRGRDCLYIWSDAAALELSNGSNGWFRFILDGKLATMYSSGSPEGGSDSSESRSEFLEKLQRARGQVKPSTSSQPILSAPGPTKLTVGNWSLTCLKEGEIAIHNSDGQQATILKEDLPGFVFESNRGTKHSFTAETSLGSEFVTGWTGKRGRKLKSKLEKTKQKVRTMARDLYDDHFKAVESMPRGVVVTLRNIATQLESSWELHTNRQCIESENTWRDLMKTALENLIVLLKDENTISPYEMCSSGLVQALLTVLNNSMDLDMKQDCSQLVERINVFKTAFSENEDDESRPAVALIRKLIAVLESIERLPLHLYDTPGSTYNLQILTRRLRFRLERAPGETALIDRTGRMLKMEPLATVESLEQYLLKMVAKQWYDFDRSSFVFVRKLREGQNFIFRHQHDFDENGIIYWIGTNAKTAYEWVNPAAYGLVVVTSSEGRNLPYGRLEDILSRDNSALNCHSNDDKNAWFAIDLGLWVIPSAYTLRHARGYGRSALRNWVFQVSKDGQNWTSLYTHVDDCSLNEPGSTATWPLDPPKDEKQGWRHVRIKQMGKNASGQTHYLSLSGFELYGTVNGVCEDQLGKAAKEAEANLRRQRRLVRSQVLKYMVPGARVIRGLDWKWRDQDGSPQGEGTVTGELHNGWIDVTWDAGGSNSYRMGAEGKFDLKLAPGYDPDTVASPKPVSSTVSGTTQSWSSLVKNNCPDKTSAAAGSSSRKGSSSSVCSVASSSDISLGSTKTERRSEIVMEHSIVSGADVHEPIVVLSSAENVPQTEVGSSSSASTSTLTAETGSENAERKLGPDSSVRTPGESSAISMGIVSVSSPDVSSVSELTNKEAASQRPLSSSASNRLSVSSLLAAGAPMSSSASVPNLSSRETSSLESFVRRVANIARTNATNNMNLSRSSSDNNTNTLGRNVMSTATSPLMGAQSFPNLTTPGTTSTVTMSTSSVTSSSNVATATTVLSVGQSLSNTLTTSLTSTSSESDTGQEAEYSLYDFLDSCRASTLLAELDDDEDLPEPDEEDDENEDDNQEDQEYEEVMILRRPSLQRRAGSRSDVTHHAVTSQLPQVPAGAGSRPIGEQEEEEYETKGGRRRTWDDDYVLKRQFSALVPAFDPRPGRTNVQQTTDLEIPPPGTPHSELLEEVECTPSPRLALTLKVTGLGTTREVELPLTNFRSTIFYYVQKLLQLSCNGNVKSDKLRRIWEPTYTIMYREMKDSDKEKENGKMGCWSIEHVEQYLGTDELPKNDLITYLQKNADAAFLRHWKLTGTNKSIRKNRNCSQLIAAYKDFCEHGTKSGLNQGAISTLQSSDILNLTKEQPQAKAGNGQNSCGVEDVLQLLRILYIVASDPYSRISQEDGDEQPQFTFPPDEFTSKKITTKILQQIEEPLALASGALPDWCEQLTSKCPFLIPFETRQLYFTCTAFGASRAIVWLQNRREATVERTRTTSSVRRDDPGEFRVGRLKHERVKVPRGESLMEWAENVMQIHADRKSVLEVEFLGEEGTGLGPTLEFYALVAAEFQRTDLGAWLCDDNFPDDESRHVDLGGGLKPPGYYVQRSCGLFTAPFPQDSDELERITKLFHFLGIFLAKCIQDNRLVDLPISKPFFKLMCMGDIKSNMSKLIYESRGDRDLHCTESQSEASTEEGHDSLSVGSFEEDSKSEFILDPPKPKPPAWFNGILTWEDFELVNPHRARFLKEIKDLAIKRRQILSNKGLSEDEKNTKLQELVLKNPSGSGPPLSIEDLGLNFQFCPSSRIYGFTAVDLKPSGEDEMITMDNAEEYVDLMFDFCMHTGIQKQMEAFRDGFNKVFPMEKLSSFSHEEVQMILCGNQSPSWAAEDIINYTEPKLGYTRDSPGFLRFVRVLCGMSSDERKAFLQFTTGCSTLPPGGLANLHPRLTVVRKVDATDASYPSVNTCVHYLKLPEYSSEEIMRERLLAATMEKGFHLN

Molecular target: T1, Ubiquitin Specific Peptidase 15 (USP15) (human (endogenous in LN-229, LN-428, LN-18)) (UniProt Q9Y4E8)
T1 sequence: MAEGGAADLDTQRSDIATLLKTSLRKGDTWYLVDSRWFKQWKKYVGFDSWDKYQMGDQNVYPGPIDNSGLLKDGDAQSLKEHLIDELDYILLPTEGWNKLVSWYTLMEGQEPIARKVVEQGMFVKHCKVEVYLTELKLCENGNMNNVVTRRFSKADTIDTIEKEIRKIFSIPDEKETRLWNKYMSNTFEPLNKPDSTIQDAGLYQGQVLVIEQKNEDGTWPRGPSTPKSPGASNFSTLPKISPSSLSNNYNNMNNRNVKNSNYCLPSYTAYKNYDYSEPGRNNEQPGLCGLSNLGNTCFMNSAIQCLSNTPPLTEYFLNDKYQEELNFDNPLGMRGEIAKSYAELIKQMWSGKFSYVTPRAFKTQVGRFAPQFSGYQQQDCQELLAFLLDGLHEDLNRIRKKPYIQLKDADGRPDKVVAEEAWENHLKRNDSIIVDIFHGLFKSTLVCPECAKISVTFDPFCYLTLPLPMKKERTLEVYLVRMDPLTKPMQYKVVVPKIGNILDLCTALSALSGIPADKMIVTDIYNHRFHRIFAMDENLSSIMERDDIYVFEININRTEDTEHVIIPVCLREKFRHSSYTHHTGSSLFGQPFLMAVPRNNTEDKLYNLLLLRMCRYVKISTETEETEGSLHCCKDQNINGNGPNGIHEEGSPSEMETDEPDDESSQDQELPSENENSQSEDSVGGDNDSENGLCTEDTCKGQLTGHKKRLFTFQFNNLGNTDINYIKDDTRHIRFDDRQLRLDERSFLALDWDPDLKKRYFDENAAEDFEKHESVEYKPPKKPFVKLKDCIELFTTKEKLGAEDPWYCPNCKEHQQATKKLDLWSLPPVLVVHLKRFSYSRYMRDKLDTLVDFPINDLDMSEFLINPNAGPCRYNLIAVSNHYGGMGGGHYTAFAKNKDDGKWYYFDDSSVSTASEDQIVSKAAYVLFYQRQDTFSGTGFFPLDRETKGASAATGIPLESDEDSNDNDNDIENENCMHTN
Test: affinity purification with mass spectrometry; IP of endogenous USP15 (antibody NB110-40690, 5 ug/mg lysate) from LN-229 lysate (1% NP40, 25 mM Tris pH 7.5, 150 mM NaCl), overnight at 4°C, protein A agarose beads, washes 0.1% Tween-20/PBS; two independent IPs (3 mg and 5 mg protein); control normal rabbit IgG

Molecule: Complement C4-A (human (endogenous in LN-229))
binding: binds

Molecule: Glutamine synthetase (from UniProt P15104 1-373)
binding: binds

Molecule: Oxysterol Binding Protein-Like 3 (OSBPL3) (from UniProt Q9H4L5 1-887)
binding: binds

B1: Ubiquitin carboxyl-terminal hydrolase 4 (protein, UniProt Q13107 1-963)
chain: MAEGGGCRERPDAETQKSELGPLMRTTLQRGAQWYLIDSRWFKQWKKYVGFDSWDMYNVGEHNLFPGPIDNSGLFSDPESQTLKEHLIDELDYVLVPTEAWNKLLNWYGCVEGQQPIVRKVVEHGLFVKHCKVEVYLLELKLCENSDPTNVLSCHFSKADTIATIEKEMRKLFNIPAERETRLWNKYMSNTYEQLSKLDNTVQDAGLYQGQVLVIEPQNEDGTWPRQTLQSKSSTAPSRNFTTSPKSSASPYSSVSASLIANGDSTSTCGMHSSGVSRGGSGFSASYNCQEPPSSHIQPGLCGLGNLGNTCFMNSALQCLSNTAPLTDYFLKDEYEAEINRDNPLGMKGEIAEAYAELIKQMWSGRDAHVAPRMFKTQVGRFAPQFSGYQQQDSQELLAFLLDGLHEDLNRVKKKPYLELKDANGRPDAVVAKEAWENHRLRNDSVIVDTFHGLFKSTLVCPECAKVSVTFDPFCYLTLPLPLKKDRVMEVFLVPADPHCRPTQYRVTVPLMGAVSDLCEALSRLSGIAAENMVVADVYNHRFHKIFQMDEGLNHIMPRDDIFVYEVCSTSVDGSECVTLPVYFRERKSRPSSTSSASALYGQPLLLSVPKHKLTLESLYQAVCDRISRYVKQPLPDEFGSSPLEPGACNGSRNSCEGEDEEEMEHQEEGKEQLSETEGSGEDEPGNDPSETTQKKIKGQPCPKRLFTFSLVNSYGTADINSLAADGKLLKLNSRSTLAMDWDSETRRLYYDEQESEAYEKHVSMLQPQKKKKTTVALRDCIELFTTMETLGEHDPWYCPNCKKHQQATKKFDLWSLPKILVVHLKRFSYNRYWRDKLDTVVEFPIRGLNMSEFVCNLSARPYVYDLIAVSNHYGAMGVGHYTAYAKNKLNGKWYYFDDSNVSLASEDQIVTKAAYVLFYQRRDDEFYKTPSLSSSGSSDGGTRPSSSQQGFGDDEACSMDTN
binding: binds

B2: Kinesin Family Member 15 (KIF15) (protein, UniProt Q9NS87 1-1388)
chain: MAPGCKTELRSVTNGQSNQPSNEGDAIKVFVRIRPPAERSGSADGEQNLCLSVLSSTSLRLHSNPEPKTFTFDHVADVDTTQESVFATVAKSIVESCMSGYNGTIFAYGQTGSGKTFTMMGPSESDNFSHNLRGVIPRSFEYLFSLIDREKEKAGAGKSFLCKCSFIEIYNEQIYDLLDSASAGLYLREHIKKGVFVVGAVEQVVTSAAEAYQVLSGGWRNRRVASTSMNRESSRSHAVFTITIESMEKSNEIVNIRTSLLNLVDLAGSERQKDTHAEGMRLKEAGNINRSLSCLGQVITALVDVGNGKQRHVCYRDSKLTFLLRDSLGGNAKTAIIANVHPGSRCFGETLSTLNFAQRAKLIKNKAVVNEDTQGNVSQLQAEVKRLKEQLAELASGQTPPESFLTRDKKKTNYMEYFQEAMLFFKKSEQEKKSLIEKVTQLEDLTLKKEKFIQSNKMIVKFREDQIIRLEKLHKESRGGFLPEEQDRLLSELRNEIQTLREQIEHHPRVAKYAMENHSLREENRRLRLLEPVKRAQEMDAQTIAKLEKAFSEISGMEKSDKNQQGFSPKAQKEPCLFANTEKLKAQLLQIQTELNNSKQEYEEFKELTRKRQLELESELQSLQKANLNLENLLEATKACKRQEVSQLNKIHAETLKIITTPTKAYQLHSRPVPKLSPEMGSFGSLYTQNSSILDNDILNEPVPPEMNEQAFEAISEELRTVQEQMSALQAKLDEEEHKNLKLQQHVDKLEHHSTQMQELFSSERIDWTKQQEELLSQLNVLEKQLQETQTKNDFLKSEVHDLRVVLHSADKELSSVKLEYSSFKTNQEKEFNKLSERHMHVQLQLDNLRLENEKLLESKACLQDSYDNLQEIMKFEIDQLSRNLQNFKKENETLKSDLNNLMELLEAEKERNNKLSLQFEEDKENSSKEILKVLEAVRQEKQKETAKCEQQMAKVQKLEESLLATEKVISSLEKSRDSDKKVVADLMNQIQELRTSVCEKTETIDTLKQELKDINCKYNSALVDREESRVLIKKQEVDILDLKETLRLRILSEDIERDMLCEDLAHATEQLNMLTEASKKHSGLLQSAQEELTKKEALIQELQHKLNQKKEEVEQKKNEYNFKMRQLEHVMDSAAEDPQSPKTPPHFQTHLAKLLETQEQEIEDGRASKTSLEHLVTKLNEDREVKNAEILRMKEQLREMENLRLESQQLIEKNWLLQGQLDDIKRQKENSDQNHPDNQQLKNEQEESIKERLAKSKIVEEMLKMKADLEEVQSALYNKEMECLRMTDEVERTQTLESKAFQEKEQLRSKLEEMYEERERTSQEMEMLRKQVECLAEENGKLVGHQNLHQKIQYVVRLKKENVRLAEETEKLRAENVFLKEKKRSES
binding: binds

B3: Squamous Cell Carcinoma Antigen Recognized By T Cells 3 (SART3) (protein, UniProt Q15020 1-963)
chain: MATAAETSASEPEAESKAGPKADGEEDEVKAARTRRKVLSRAVAAATYKTMGPAWDQQEEGVSESDGDEYAMASSAESSPGEYEWEYDEEEEKNQLEIERLEEQLSINVYDYNCHVDLIRLLRLEGELTKVRMARQKMSEIFPLTEELWLEWLHDEISMAQDGLDREHVYDLFEKAVKDYICPNIWLEYGQYSVGGIGQKGGLEKVRSVFERALSSVGLHMTKGLALWEAYREFESAIVEAARLEKVHSLFRRQLAIPLYDMEATFAEYEEWSEDPIPESVIQNYNKALQQLEKYKPYEEALLQAEAPRLAEYQAYIDFEMKIGDPARIQLIFERALVENCLVPDLWIRYSQYLDRQLKVKDLVLSVHNRAIRNCPWTVALWSRYLLAMERHGVDHQVISVTFEKALNAGFIQATDYVEIWQAYLDYLRRRVDFKQDSSKELEELRAAFTRALEYLKQEVEERFNESGDPSCVIMQNWARIEARLCNNMQKARELWDSIMTRGNAKYANMWLEYYNLERAHGDTQHCRKALHRAVQCTSDYPEHVCEVLLTMERTEGSLEDWDIAVQKTETRLARVNEQRMKAAEKEAALVQQEEEKAEQRKRARAEKKALKKKKKIRGPEKRGADEDDEKEWGDDEEEQPSKRRRVENSIPAAGETQNVEVAAGPAGKCAAVDVEPPSKQKEKAASLKRDMPKVLHDSSKDSITVFVSNLPYSMQEPDTKLRPLFEACGEVVQIRPIFSNRGDFRGYCYVEFKEEKSALQALEMDRKSVEGRPMFVSPCVDKSKNPDFKVFRYSTSLEKHKLFISGLPFSCTKEELEEICKAHGTVKDLRLVTNRAGKPKGLAYVEYENESQASQAVMKMDGMTIKENIIKVAISNPPQRKVPEKPETRKAPGGPMLLPQTYGARGKGRTQLSLLPRALQRPSAAAPQAENGPAAAPAVAAPAATEAPKMSNADFAKLFLRK
binding: binds

More lines, now with the values ahead:

binding: binds
Molecule: Dynamin-1-like protein (from UniProt O00429 1-736)

binding: binds
Molecule: Ubiquitin carboxyl-terminal hydrolase 11 (from UniProt P51784 1-963)

binding: binds
Molecule: HECT Domain Containing E3 Ubiquitin Protein Ligase 1 (HECTD1) (from UniProt Q9ULT8 1-2610)
